The record followed here is the supplement of paper PMC12873370.

The list shows a part of the results. Repeats are few or missing, and single values can be far off.

In this test the test system is PREPP (mouse prostate epithelium Trp53/Pten KO). As to the kind of experiment: cell viability relative to untreated (fraction); higher = less growth inhibition. As to conditions: 5 µM; 3 days.
Regarding `COC[C@]12CN(C)C3[C@@H]4[C@H](OC)[C@H]1[C@@]3([C@@H](OC)C[C@H]2O)[C@@H]1C[C@@]2(O)[C@H](OC(=O)c3ccccc3)[C@@H]1[C@]4(O)[C@@H](O)[C@@H]2OC`, the cell viability is 0.83.
The result for `C=CC1CN2CCC1CC2C(O)c1ccnc2ccccc12` (centres undefined) reads 0.99; that for `O=C1C=CC(=O)C=C1`, 0.89.
The result for `O=C(O)CCCCCCCCCO` reads 1.24; that for `C[C@@H]1C(=O)O[C@H]2[C@H](O)[C@@]34O[C@@H]5OC(=O)[C@H](O)[C@@]56[C@H](C(C)(C)C)[C@H](O)C(OC3=O)[C@]64[C@@]12O` (some centres undefined), 1.23.
To `CNCC(O)c1ccc(O)cc1` (centres undefined) belongs 1.26; to `C[S+]([O-])CCCCN=C=S` (centres undefined), 1.
In turn, `N#C/C=C1/C=C[C@@H](O)[C@H](O)[C@H]1O[C@@H]1O[C@H](CO)[C@@H](O)[C@H](O)[C@H]1O` showed a cell viability of 1.01.
The result for `COc1ccc2c(c[n+](C)c3c4cc5c(cc4ccc23)OCO5)c1OC` reads 0.666; that for `C[C@@]12C(=O)OC(=O)[C@]1(C)[C@H]1CC[C@@H]2O1`, 0.763.
The result for `COc1cc(OC)c(OC)cc1C=O` reads 0.901; that for `C[C@@]1(C(=O)O)CC[C@]2(C)CC[C@]3(C)C4=CC(=O)c5c(cc(O)c(O)c5C=O)[C@]4(C)CC[C@@]3(C)[C@@H]2C1`, 0.8; that for `CC[C@@H](C(=O)[C@@H](C)[C@@H](O)[C@H](C)[C@@H]1O[C@@H]([C@@H](CC)C(=O)O)CC[C@@H]1C)[C@H]1O[C@]2(C=C[C@@H](O)[C@]3(CC[C@@](C)([C@H]4CC[C@](O)(CC)[C@H](C)O4)O3)O2)[C@H](C)C[C@@H]1C`, 0.292.
To `Oc1ccc(Cl)cc1Cl` belongs 0.94.
On to `C[C@@H]1O[C@@H](O[C@H]2C[C@@H](O)[C@]3(CO)[C@H]4[C@H](O)C[C@]5(C)[C@@H](C6=CC(=O)OC6)CC[C@]5(O)[C@@H]4CC[C@]3(O)C2)[C@H](O)[C@H](O)[C@H]1O`, for which the cell viability is 0.854.
In turn, `O=C1C=CC[C@@H]2[C@H]3CCCN4CCC[C@@H](CN12)[C@@H]34` came in with a cell viability of 0.91.
As for `CC(=O)Oc1ccc(/C=C/c2cc(OC(C)=O)cc(OC(C)=O)c2)cc1`, the cell viability turned out to be 0.9.
The result for `COc1cc(CCN)ccc1O` reads 0.829; that for `CN1[C@@H]2CC(O)C[C@H]1[C@@H]1O[C@@H]12` (some centres undefined), 1.01.
To `CCC1=C[C@H]2CN3CCc4c([nH]c5ccccc45)[C@](C(=O)OC)(C2)[C@H]13` belongs 0.957; to `CN[C@@H]1C[C@H]2O[C@@](C)([C@@H]1OC)n1c3ccccc3c3c4c(c5c6ccccc6n2c5c31)C(=O)NC4`, 0.207.
`CN(C)NC(=O)CCC(=O)O` displayed a cell viability of 0.954.
To `CCCCCCCCCCCCCC(=O)O[C@@H]1[C@@H](C)[C@@]2(O)[C@@H](C=C(CO)C[C@]3(O)C(=O)C(C)=C[C@@H]23)[C@@H]2C(C)(C)[C@]12OC(C)=O` belongs 0.95.
For the molecule `C=C[C@H]1CN2CC[C@H]1C[C@H]2[C@H](O)c1ccnc2ccccc12`, the cell viability is 0.885.
